In ChEMBL document CHEMBL1152278, “Discovery of ligands for a novel target, the human telomerase RNA, based on flexible-target virtual screening and NMR” (J Med Chem, 2008):

Assay: Binding affinity to human telomerase P2b RNA by […]
How it was run: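 hTR-P2b RNA made by in vitro T7 polymerase transcription from a synthetic DNA template. Titration was at 50 μM RNA in 20 mM sodium phosphate pH 6.7, 50 mM NaCl, 90/10% H₂O/D₂O, 15 °C, with ligand added stepwise. Kd was fitted from 800 MHz imino-proton chemical shifts under a fast-exchange model. Monte Carlo fitting pooled at least 2 (typically 3) peaks to give the standard deviation.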

Kd: 1.3 mM
SMILES: OCCOCCN1CCN(C2=Nc3ccccc3Sc3ccccc32)CC1 [QUETIAPINE]
